For at least one compound, name, drawing or mass did not settle the structure. Residues, ends and D or L forms follow the SMILES beside them.
Key:
[1] = test system: chromatophore/neuronal cell; format: cell-based
[2] = test system: Hemichromis bimaculatus chromatophores; format: cell-based
melanophores = format: cell-based
[3] = test system: Betta splendens erythrophores; format: cell-based

SMILES	Chromatophore response 2-Cell Cytosensor (second cell type included) [1]	change of appearance / color of chromatophores [2]	further results
CC(=O)OCC[N+](C)(C)C [Acetylcholine]	Eryth. Aggr.	no color change	–
NC(N)=NCCC[C@H](NC(=O)[C@H](Cc1ccccc1)NC(=O)[C@@H]1CCCN1C(=O)[C@H](CO)NC(=O)[C@H](Cc1ccccc1)NC(=O)CNC(=O)[C@@H]1CCCN1C(=O)[C@@H]1CCCN1C(=O)[C@@H](N)CCCN=C(N)N)C(=O)O [Bradykinin] (H-RPPGFSPFR-OH)	Eryth. Aggr.	–	Threshold concentration PPM (chromatophores): XX (key: X=1 to 100 PPM; XX=100 to 1000 PPM)
COC(=O)[C@H]1[C@@H](OC(=O)c2ccccc2)C[C@@H]2CC[C@H]1N2C [Cocaine]	–	–	Chromatophore response Melanophores (melanophores): Agr.
C=C[C@@]1(C)CC(=O)[C@]2(O)[C@@]3(C)[C@@H](O)CCC(C)(C)[C@@H]3[C@H](O)[C@H](OC(C)=O)[C@@]2(C)O1 [Forskolin]	–	change the appearance	–
COCCOC(=O)C1=C(C)NC(C)=C(C(=O)OC(C)C)C1c1cccc([N+](=O)[O-])c1 (centres unmarked) [Nimodipine]	–	–	Morphology Effect: Aggregation [3]: No; Morphology Effect: Dispersion [3]: Yes

Reference: US6913877B1 (priority 2000, dated 2005)
